Experimental data taken from US20080207488A1, “Method for Detecting Peptides Comprising a Cross-B Structure” (priority 2005, published 2008).
No constants are given. Whether binding was seen depends on the method and setting. Some entries that bind do so weakly or less than the wild type. Where a sequence is shown, tags or fusion partners need not be part of it.

By UniProt entry, the sequences of proteins in these tests, tags left out. Residues count along the entry.
UniProt P01012, residues 2-386: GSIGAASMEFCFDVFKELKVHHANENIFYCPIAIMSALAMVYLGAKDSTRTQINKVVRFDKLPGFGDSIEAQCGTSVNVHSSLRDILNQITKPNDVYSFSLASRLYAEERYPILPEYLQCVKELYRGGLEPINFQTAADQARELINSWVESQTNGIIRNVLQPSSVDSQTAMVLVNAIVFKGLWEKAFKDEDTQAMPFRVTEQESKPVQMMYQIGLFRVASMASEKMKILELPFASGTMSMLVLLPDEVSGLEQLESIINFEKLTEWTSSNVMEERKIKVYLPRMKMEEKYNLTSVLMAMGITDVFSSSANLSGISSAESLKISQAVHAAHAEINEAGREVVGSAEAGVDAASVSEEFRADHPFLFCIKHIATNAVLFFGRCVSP

Experiments:
[1] = target: heat-denatured misfolded ovalbumin (chicken) (UniProt P01012); test: ELISA, coated protein, tPA F-EGF dilution series
[2] = target: ovalbumin, freshly dissolved (native OVA) (chicken) (UniProt P01012); test: ELISA, coated protein, tPA F-EGF dilution series

binding [1]: binds | binding [2]: binds
B1: human tissue-type plasminogen activator finger EGF (tPA F-EGF) fragment with carboxy-terminal FLAG-tag-His-tag (protein, UniProt P00750 36-120, looked up, not shown: small tags and cut ends)
chain: SYQVICRDEKTQMIYQQHQSWLRPVLRSNRVEYCWCNSGRAQCHSVPVKSCSEPRCFNGGTCQQALYFSDFVCQCPEGFAGKCCE
